The record followed here is patent publication US20200405809A1, “COMBINATION OF A CYCLIN DEPENDENT KINASE INHIBITOR AND A BET- BROMODOMAIN INHIBITOR” (Pfizer Inc., priority 2018, published 2020).

Each structure is given as a SMILES string.

This assay concerns T47D breast cancer multicellular tumor spheroids. The assay is described as follows: In vitro screen in T47D breast cancer multicellular tumor spheroids, BET inhibitor plus palbociclib. Type of assay: cell-based. As to conditions: BET inhibitor (30, 300, 3000 nM) in combination with 25 nM palbociclib; from AUC of spheroid growth curves (Chalice Analyzer). On the procedure: T47D multicellular tumor spheroids were grown in a low-adhesion 96-well plate for use in screening. […] Two hundred T47D cells were seeded per well of 96-well ultralow attachment plates (ULA-96U, Thermo Fisher). Cells were grown for 4 days to allow spheroid formation, followed by initiation of compound treatment as indicated (day 0). […] The medium was replaced every 3 days. Spheroid average diameter was quantified every 3 days (Celigo 200-BFFL-S, Nexcelcom) and spheroid growth curves were obtained. The area-under-curve (AUC) was quantified and used to calculate synergy scores for BET inhibitors in combination with palbociclib (Chalice Analyzer, Horizon Discovery).

For `CCNC(=O)C[C@@H]1N=C(c2ccc(Cl)cc2)c2cc(OC)ccc2-n2c(C)nnc21` [B3, IBET-762 (GSK525762)], the Synergy score is 0.99.
